Source: article doi:10.1101/2021.01.27.428282
Where two headings read alike, the source gives them in different places. No constants are given. Whether binding was seen depends on the method and setting. In cells and extracts the contact can be indirect. Some results given as binding are weak or reduced against the parent protein; the word gives no strength. For part of these data: Tags and fused reporters may be left off the sequences shown.

Protein sequences, listed by entry. Tags and fused reporters are not part of them.
UniProt Q12888: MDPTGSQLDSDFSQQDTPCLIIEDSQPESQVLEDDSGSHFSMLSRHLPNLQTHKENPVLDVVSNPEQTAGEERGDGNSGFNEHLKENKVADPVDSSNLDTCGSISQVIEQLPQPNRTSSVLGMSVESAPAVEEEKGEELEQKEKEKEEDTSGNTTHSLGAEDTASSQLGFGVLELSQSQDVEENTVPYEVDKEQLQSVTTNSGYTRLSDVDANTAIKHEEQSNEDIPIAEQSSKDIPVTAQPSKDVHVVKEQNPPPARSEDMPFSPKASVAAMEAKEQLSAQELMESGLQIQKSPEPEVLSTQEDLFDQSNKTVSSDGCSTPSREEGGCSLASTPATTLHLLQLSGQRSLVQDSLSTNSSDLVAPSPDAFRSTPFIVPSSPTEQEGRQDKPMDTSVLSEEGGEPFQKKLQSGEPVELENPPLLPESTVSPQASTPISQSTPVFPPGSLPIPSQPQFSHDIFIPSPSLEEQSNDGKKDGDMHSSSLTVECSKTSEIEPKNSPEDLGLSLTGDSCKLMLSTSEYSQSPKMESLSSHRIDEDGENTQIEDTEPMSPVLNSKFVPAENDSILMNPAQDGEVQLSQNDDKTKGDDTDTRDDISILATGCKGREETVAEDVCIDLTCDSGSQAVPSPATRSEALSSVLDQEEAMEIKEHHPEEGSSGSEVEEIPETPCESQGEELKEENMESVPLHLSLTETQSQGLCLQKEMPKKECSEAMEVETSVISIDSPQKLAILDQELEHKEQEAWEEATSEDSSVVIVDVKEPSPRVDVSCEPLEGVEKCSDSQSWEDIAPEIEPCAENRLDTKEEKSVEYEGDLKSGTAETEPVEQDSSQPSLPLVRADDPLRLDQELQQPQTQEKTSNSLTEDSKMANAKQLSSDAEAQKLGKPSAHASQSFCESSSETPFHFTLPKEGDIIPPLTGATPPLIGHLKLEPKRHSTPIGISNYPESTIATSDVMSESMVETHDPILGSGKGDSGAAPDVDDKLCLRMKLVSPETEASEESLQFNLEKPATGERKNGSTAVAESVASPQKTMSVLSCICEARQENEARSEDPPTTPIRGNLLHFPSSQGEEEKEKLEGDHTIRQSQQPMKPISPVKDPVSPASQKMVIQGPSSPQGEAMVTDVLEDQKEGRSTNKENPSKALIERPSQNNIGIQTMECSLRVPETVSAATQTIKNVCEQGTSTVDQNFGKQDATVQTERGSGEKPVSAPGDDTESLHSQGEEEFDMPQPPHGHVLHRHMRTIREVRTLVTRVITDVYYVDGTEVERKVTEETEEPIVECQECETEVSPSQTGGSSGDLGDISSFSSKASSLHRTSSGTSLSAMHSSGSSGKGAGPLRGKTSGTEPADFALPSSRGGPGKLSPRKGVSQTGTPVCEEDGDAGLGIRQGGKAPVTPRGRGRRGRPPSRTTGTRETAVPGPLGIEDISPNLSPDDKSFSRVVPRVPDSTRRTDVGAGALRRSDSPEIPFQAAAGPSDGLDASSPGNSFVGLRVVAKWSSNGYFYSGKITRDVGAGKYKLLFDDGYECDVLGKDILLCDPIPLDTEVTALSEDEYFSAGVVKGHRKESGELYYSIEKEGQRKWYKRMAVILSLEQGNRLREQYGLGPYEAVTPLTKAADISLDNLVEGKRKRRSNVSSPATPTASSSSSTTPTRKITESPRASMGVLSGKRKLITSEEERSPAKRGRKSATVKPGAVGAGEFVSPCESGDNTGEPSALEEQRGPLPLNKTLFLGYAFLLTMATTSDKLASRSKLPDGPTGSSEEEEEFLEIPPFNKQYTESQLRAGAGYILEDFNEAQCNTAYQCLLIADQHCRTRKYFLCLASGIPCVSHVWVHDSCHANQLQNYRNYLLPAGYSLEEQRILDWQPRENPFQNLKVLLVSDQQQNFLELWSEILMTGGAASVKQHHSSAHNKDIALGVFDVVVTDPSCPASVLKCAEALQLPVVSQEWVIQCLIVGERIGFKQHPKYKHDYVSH
UniProt P46063: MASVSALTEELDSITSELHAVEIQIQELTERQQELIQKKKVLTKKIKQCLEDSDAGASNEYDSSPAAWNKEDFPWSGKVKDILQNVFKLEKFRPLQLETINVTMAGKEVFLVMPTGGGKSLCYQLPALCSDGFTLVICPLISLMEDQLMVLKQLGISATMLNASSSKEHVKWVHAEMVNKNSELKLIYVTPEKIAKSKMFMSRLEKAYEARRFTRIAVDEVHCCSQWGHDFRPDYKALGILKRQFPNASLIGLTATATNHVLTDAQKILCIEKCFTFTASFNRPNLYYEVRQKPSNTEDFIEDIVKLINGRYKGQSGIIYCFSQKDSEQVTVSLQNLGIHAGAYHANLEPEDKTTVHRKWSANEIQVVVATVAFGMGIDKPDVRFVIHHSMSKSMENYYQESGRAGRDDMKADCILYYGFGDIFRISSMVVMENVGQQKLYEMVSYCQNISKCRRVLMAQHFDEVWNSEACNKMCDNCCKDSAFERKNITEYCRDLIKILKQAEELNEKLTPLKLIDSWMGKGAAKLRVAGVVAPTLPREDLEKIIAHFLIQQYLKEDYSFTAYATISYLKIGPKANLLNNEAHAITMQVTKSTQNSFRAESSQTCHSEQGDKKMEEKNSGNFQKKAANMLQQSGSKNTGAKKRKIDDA
UniProt O94822: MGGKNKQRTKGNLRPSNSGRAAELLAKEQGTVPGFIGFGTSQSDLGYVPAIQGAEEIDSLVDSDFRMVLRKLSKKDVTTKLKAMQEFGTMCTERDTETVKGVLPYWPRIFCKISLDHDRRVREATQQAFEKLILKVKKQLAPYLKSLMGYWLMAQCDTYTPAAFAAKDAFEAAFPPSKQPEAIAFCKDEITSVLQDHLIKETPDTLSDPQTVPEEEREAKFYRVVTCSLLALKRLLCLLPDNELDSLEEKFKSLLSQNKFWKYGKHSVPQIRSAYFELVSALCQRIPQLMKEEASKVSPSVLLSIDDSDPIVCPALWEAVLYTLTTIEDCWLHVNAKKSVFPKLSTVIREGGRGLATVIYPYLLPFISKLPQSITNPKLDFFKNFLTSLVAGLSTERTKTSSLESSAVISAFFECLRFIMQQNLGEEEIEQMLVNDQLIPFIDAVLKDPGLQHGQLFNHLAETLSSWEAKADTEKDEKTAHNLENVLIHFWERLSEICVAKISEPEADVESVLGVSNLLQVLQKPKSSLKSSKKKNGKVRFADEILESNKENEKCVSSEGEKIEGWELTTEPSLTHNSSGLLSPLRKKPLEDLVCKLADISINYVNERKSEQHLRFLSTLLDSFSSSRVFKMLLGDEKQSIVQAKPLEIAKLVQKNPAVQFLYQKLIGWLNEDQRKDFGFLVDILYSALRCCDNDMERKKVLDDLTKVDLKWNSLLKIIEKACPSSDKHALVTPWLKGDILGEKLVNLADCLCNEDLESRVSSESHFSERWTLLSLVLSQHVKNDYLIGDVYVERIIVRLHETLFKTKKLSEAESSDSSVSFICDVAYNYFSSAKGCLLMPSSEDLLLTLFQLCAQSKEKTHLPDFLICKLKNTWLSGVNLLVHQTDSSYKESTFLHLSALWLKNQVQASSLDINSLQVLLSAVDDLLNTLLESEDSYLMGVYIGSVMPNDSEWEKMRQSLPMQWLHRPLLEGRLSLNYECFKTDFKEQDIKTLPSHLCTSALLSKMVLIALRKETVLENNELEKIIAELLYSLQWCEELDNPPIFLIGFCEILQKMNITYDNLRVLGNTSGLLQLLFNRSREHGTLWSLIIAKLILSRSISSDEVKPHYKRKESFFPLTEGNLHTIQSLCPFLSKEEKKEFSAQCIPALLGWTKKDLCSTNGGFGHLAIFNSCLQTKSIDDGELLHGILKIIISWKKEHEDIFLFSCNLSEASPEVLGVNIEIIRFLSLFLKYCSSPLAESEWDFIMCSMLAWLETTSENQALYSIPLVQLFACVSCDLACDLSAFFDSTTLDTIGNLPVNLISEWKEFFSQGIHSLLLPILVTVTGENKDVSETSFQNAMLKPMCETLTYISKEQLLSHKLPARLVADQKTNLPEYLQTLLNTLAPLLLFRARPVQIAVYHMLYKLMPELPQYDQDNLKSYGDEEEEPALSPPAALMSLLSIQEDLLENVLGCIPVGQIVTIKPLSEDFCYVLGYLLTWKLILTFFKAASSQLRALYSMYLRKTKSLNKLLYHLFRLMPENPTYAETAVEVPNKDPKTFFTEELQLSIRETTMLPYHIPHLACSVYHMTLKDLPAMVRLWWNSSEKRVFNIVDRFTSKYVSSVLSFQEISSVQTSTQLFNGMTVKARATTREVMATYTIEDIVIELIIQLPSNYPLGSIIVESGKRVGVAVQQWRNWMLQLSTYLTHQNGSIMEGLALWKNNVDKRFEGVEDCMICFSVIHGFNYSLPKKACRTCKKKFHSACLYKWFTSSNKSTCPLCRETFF
UniProt P39748: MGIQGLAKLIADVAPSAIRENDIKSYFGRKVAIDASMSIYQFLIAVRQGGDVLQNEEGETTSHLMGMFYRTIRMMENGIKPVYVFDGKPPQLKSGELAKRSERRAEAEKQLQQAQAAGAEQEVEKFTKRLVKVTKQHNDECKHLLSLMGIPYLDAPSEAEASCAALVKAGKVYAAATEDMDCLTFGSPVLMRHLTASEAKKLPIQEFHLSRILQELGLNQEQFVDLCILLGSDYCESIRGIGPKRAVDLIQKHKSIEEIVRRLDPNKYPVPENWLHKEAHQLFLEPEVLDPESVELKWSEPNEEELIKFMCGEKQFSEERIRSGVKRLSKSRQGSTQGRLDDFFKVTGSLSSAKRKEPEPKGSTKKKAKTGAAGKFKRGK

Assays:
Assay in all cases: co-IP
[1] = molecular target: T1, Myc-USP47 (human) (UniProt Q96K76)
T1 sequence: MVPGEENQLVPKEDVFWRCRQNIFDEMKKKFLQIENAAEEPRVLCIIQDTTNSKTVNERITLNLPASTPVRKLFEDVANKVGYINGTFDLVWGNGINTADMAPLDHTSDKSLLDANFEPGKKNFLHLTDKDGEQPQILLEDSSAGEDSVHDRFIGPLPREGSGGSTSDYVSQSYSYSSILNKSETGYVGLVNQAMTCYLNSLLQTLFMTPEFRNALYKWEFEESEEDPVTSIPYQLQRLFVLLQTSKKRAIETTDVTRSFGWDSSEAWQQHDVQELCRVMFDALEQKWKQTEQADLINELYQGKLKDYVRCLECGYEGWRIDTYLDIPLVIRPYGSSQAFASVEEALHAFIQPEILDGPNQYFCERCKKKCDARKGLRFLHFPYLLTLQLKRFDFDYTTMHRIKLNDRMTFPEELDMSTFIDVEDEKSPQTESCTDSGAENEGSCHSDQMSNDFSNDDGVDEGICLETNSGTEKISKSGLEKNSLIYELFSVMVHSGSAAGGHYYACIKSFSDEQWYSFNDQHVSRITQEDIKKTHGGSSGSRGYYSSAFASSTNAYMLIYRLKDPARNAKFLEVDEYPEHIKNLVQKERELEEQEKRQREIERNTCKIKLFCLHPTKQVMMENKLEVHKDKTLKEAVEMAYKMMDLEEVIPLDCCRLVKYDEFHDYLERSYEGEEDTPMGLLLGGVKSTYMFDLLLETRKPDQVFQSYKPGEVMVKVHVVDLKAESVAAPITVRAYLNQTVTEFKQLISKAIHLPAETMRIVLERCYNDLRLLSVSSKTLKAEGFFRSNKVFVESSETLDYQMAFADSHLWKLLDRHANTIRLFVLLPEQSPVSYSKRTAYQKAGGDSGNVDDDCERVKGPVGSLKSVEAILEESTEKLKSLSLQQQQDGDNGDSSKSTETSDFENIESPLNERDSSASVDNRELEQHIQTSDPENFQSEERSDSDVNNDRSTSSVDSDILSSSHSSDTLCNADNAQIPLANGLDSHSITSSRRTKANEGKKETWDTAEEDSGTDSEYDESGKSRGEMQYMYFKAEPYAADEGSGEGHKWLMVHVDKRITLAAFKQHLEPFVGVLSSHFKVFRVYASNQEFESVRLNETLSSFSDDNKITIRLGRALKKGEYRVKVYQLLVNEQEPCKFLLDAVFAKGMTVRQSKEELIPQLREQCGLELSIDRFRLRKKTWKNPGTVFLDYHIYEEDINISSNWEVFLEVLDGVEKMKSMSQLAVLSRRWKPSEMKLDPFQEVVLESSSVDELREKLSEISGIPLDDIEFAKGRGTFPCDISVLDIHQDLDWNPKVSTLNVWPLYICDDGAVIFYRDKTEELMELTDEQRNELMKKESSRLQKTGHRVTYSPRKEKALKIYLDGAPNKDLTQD

[2] = molecular target: MYC-53BP1 (UniProt Q12888)
[3] = molecular target: Myc-RECQL1 (UniProt P46063)
[4] = molecular target: Myc-RECQL1 (UniProt P46063); remark: listed apart in the source

binding [1]	binding [2]	binding [3]	binding [4]	Substance
binds	–	–	–	RECQL1, endogenous (from UniProt P46063 1-649) (enzyme)
–	binds	–	–	Listerin (LTN1) (from UniProt O94822 1-1766) (enzyme)
binds	–	–	–	FEN1, endogenous (from UniProt P39748 1-380) (enzyme)
binds	–	binds	binds	TP53 Binding protein 1 (53BP1), endogenous (from UniProt Q12888 1-1972)
